Experimental data published in PubChem BioAssay AID2685 (National Center for Advancing Translational Sciences (NCATS), 2010).
The list shows a part of the results. Further columns of the screen follow, without active or inactive calls. The list favours compounds with an active or inconclusive main result. Words in brackets tell the shape of the fitted curve; partial curves, single points and poor fits give uncertain potencies.

Test: qHTS Assay for Lipid Storage Modulators in Drosophila S3 Cells;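 as to cell number change: cells counted by Cell Tracker Red CMTPX staining in the red channel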
Conditions: BODIPY lipid droplet fluorescence, 18-24 h; for cell number change: measured here: cell count max response, cells fed with added oleic acid
Method in brief: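 Drosophila S3 cells loaded with oleic acid (400 uM, as added) and compounds at several concentrations; lipid droplets imaged by 488-nm laser-scanning cytometry, 500–530 nm intensity and object ratio to cell channel. Percent activity normalized to 20 uM Triacsin C.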

[1] = measured here: lipid fluorescence (Fed channel) AC50, cells fed with added oleic acid
[2] = measured here: cell number channel AC50, cells fed with added oleic acid

| Structure (SMILES) | cell number change | AC50 [1] | AC50 [2] |
| --- | --- | --- | --- |
| Cc1ccc(C(=O)N2CCN(S(=O)(=O)N3CCCCCC3)CC2)cc1 | 21% |  |  |
| O=C(NCc1ccccc1)c1cccc(F)c1F | 168% |  |  |
| CC(C)c1ccc(N(C(=O)c2ccco2)C(C(=O)NC2CCCC2)c2cccnc2)cc1 (centres undefined) | -9.52% |  |  |
| CC1CCN(c2[nH]c(=S)c(C#N)c3c2CCCC3)CC1 | -14% |  |  |
| COc1ccc(CNC(=O)CCS(=O)(=O)c2cc3c(cc2Cl)NC(=O)CO3)cc1 | -11.7% | 4.11 µM [falling, single point] |  |
| Cc1ccc(NC(=O)CCNC(=O)c2ccccc2Cl)nc1 | 21.8% | 23.1 µM [rising, single point] |  |
| CC(=O)c1ccc(NC(=O)CN2CCC(C(=O)c3ccc(F)cc3)CC2)cc1 | 21.8% | 29.1 µM [rising, single point] |  |
| Cn1nc(-c2ccc(C(=O)N3CCN(CCO)CC3)cc2)c2ccccc2c1=O |  | 6.51 µM [falling, partial curve, poor fit] |  |
| CCN(CC(=O)NCc1cccs1)C(=O)CCCOc1ccc(C(C)(C)C)cc1 | -30.9% |  | 29.1 µM [falling, single point] |
| O=C(NCc1ccc(F)cc1)c1cccc(S(=O)(=O)N2CCOCC2)c1 | -0.648% | 0.00461 µM [falling, full curve, poor fit] |  |
| O=C(NC1CCCC1)C(c1ccncc1)N(C(=O)Cc1cccs1)c1ccc(F)cc1 (centres undefined) |  | 2.06 µM [falling, partial curve] |  |
| COc1cc(C)ccc1OCc1cc(C(=O)N(Cc2c(C)nn(C)c2C)C2CC2)no1 | 3.05% |  |  |
| CC(=O)OCC1OC(Nc2cccc(C)c2)C(OC(C)=O)C(OC(C)=O)C1OC(C)=O (centres undefined) | 8.82% | 6.51 µM [falling, single point] | 6.51 µM [falling, single point] |
| CC(C)c1ccc(N(C(=O)c2csnn2)C(C(=O)NC(C)(C)C)c2cccnc2)cc1 (centres undefined) | -133% | 29.1 µM [falling, partial curve] | 29.1 µM [falling, single point] |
| Cc1nc(-c2ccccn2)nc(SCC(=O)c2ccccc2)c1Cl | 46.3% | 6.51 µM [rising, single point] | 1.16 µM [rising, full curve, poor fit] |
| CCOc1ncccc1C(=O)OCC(=O)N1CCc2ccccc21 |  | 4.11 µM [falling, single point] |  |
| CC1(C)CC2CC(C)(CN2C(=O)C23CCC(C)(C(=O)O2)C3(C)C)C1 (centres undefined) | -3.66% | 3.66 µM [rising, full curve] |  |
| Cc1cccc(NC(=S)NC2CCCC2)c1C | 16.6% | 2.59 µM [falling, full curve, poor fit] |  |
| O=c1nc(/C=C/c2ccc(O)c(O)c2)oc2ccccc12 | -12% | 0.103 µM [falling, full curve, poor fit] | 0.058 µM [falling, full curve, poor fit] |

| Structure (SMILES) | cell number change | AC50 [1] | AC50 [2] |
| --- | --- | --- | --- |
| COCCNC(=O)CN1CCN(C(c2ccccc2)c2ccccc2)CC1 | -54.5% |  | 32.6 µM [falling, single point] |
| COc1ccccc1CNc1ncccn1 | -8.03% |  |  |
| CCN(CC)C(=O)CSc1nc2sc3c(c2c(=O)n1CCOC)CCC3 | 6.74% | 1.84 µM [rising, partial curve] |  |
| CCOCCCNC(=O)C(c1ccc(OC)cc1)N(Cc1cccs1)C(=O)CNC(C)=O (centres undefined) |  | 6.51 µM [rising, single point] | 5.8 µM [rising, partial curve] |
| O=C(CC12CC3CC(CC(C3)C1)C2)N1CCCC1 | -59.9% | 0.82 µM [rising, partial curve, poor fit] | 20.6 µM [falling, single point] |
| CS(=O)(=O)c1ccc(Cl)c(NC(=O)COC(=O)c2cccc(S(=O)(=O)N3CCCC3)c2)c1 | 84.3% | 29.1 µM [rising, single point] | 29.1 µM [rising, single point] |
| COC(=O)C1=C(C)Nc2sc(C(N)=O)c(N)c2C1c1ccncc1 (centres undefined) | 41.1% | 8.2 µM [rising, partial curve] | 29.1 µM [rising, single point] |
| CS(=O)(=O)c1cnc(-c2ccccc2)nc1-c1ccc(Cl)c(Cl)c1 | 118% | 20.6 µM [rising, partial curve] | 29.1 µM [rising, partial curve] |
| COc1ccc(NC(=O)CC2C(=O)N(C)C(=S)N2Cc2cccs2)cc1 (centres undefined) | 16.7% | 20.6 µM [rising, single point] | 0.731 µM [rising, partial curve, poor fit] |
| CCOc1ccccc1N(C(=O)c1ccco1)C(C(=O)NC1CCCC1)c1cccs1 (centres undefined) | -19.2% |  |  |
| CC(C)[C@H](NC(=O)N1CCn2c1nc1ccccc12)C(=O)NCc1ccccc1Cl | -0.806% | 2.06 µM [rising, partial curve] |  |
| Cc1ccc(O)c(C(=O)CC(=O)c2cccc(F)c2)c1 | -36.9% |  | 29.1 µM [falling, single point] |
| COc1ccccc1C(=O)Nc1ccc2oc(-c3ccc(F)cc3)nc2c1 | -54.7% |  | 29.1 µM [falling, single point] |
| CC(Sc1nnc(NC2CCCCC2)s1)C(=O)N1CCOCC1 (centres undefined) | 1.34% | 23.1 µM [falling, partial curve] |  |
| C=CCn1c(SCC(=O)N2CCCCCC2)nc2ccccc2c1=O | 19.2% |  |  |
| COc1cc(/C=C(/C#N)c2ccccc2F)ccc1OCc1ccccc1 | -2.88% | 18.4 µM [falling, partial curve] |  |
| CC(O)c1n(C)c(Cl)c[n+]1C (centres undefined) | 6.51% | 18.4 µM [falling, single point] |  |
| CC(=O)Nc1ccc(Oc2ccc([N+](=O)[O-])cc2Cl)cc1 | -3.39% | 0.00461 µM [falling, full curve, poor fit] |  |
| COc1ccc(C2C=C(Nc3ccccc3)C(=O)N2c2ccccc2)cc1OC (centres undefined) | -18.9% |  | 1.3 µM [falling, full curve, poor fit] |

Sorted by SMILES length (descending): some entries from above.

| Structure (SMILES) | cell number change | AC50 [1] | AC50 [2] |
| --- | --- | --- | --- |
| CC(=O)c1ccc(NC(=O)CN2CCC(C(=O)c3ccc(F)cc3)CC2)cc1 | 21.8% | 29.1 µM [rising, single point] |  |
| COc1cc(/C=C(/C#N)c2ccccc2F)ccc1OCc1ccccc1 | -2.88% | 18.4 µM [falling, partial curve] |  |
| CC(Sc1nnc(NC2CCCCC2)s1)C(=O)N1CCOCC1 (centres undefined) | 1.34% | 23.1 µM [falling, partial curve] |  |
